Results reported in the supplement of paper PMC12889115.
The other results are listed elsewhere or left out. These are raw signals, not scaled to a control.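 First-pass screen: polymyxin B was added at a level that permeabilizes the Salmonella outer membrane while sparing the inner membrane. DMSO wells, with and without polymyxin B, defined maximum growth. Because plates differed from one another, each plate's data were ranked separately and the compounds with the lowest OD600 were carried forward as hits.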

Tested on: Salmonella enterica serovar Typhimurium SL1344
Assay: bacterial growth OD600 after 18 h with compound and polymyxin B; higher = more bacterial growth (less inhibition)
Settings: 50 µM, Mueller-Hinton broth

Row | SMILES | bacterial growth OD600 (polymyxin B 1 µg/mL) | bacterial growth OD600 (polymyxin B 0.75 µg/mL)
1 | COC(=O)c1ccc(-c2noc(CN(C)Cc3cccc(-n4cccn4)c3)n2)cc1 | 1.1 | –
2 | CC(C)c1nc(C(=O)N(Cc2cccnc2)CC2CCN(C3CCCC3)CC2)cs1 | 0.996 | –
3 | CN(C)C1(C(=O)N2CCCC2c2ccc(F)cc2)Cc2ccccc2C1 (stereo unspecified) | 0.001 | –
4 | CCC(C)NC1CCN(c2ccc(NC(=O)c3ccc(C)cc3C)cc2)CC1 (stereo unspecified) | – | 0.932
5 | CN(C)c1nc2nonc2nc1N1CCCC(c2nc3ccccc3[nH]2)C1 (stereo unspecified) | – | 0.772
6 | CCn1c(-c2cccnc2)nc2cc(NC(=O)COC)cc(C(=O)N(C)Cc3ccc(F)cc3)c21 | – | 0.845
7 | COC(=O)c1cccc(C(=O)N2CCC(C(Cc3ccc(F)cc3F)N(C)C(=O)C3CC3)CC2)c1 (stereo unspecified) | – | 0.006
8 | O=C(Cc1ccccn1)N1CCc2onc(-c3ccc(F)c(F)c3)c2C1 | – | 0.697
9 | Cc1ccc(C)c(-c2cn3c(C(=O)NCc4ccon4)csc3n2)c1 | – | 0.424
10 | Cc1ccc(CCC(=O)Nc2ccc3c(c2)CN(Cc2ccoc2)CC3)cc1 | – | 0.713
11 | O=C(Nc1ccnn1C1CCN(Cc2c(F)ccc(F)c2F)CC1)C1CCCC1 | – | 0.815
12 | COc1cccc(N2CCN(C(=O)c3cc(CC(C)c4ccccc4)no3)CC2=O)c1 (stereo unspecified) | – | 0.837
13 | O=C1CCCN1CC(=O)N1CCCC(CCc2ccccc2F)C1 (stereo unspecified) | – | 0.796
14 | Cc1c(C(=O)N(C)C(C)c2cccs2)cnn1-c1ncc2c(n1)-c1ccccc1CCC2 (stereo unspecified) | – | 0.012
15 | CC(Cc1ccccn1)N1CCC(N2CCC(C(=O)NCc3cccnc3)CC2)CC1 (stereo unspecified) | 0.954 | –
16 | CC#CCN1C(=O)NC(CCc2ccccc2)(C2CCN(CCC(C)C)CC2)C1=O (stereo unspecified) | – | 0.827

Exported as labelled records: 2 of the compounds above.
COc1cccc(N2CCN(C(=O)c3cc(CC(C)c4ccccc4)no3)CC2=O)c1 (stereo unspecified)
  bacterial growth OD600 (polymyxin B 0.75 µg/mL): 0.837
O=C1CCCN1CC(=O)N1CCCC(CCc2ccccc2F)C1 (stereo unspecified)
  bacterial growth OD600 (polymyxin B 0.75 µg/mL): 0.796

The results go on:

Row | SMILES | bacterial growth OD600 (polymyxin B 1 µg/mL) | bacterial growth OD600 (polymyxin B 0.75 µg/mL)
17 | COc1cccc(-c2nc(CN3CCN(C(=O)c4ccco4)CC3)c(C)o2)c1OC | 0.893 | –
18 | CCOc1ccccc1CN1CCc2c(C(=O)N3CCCCC3C(=O)OC)c(OC)cc(=O)n2CC1 (stereo unspecified) | – | 0.857
19 | COc1cccc(CNC(=O)CCC2CCCN(C(=O)CSc3nncn3C)C2)c1 (stereo unspecified) | 0.667 | –
20 | Cc1cc(-c2ccnc(-n3ncc(C(=O)NC(C)CCCC(C)(C)O)c3C3CC3)n2)c(C)s1 (stereo unspecified) | – | 0.743
21 | Cc1c(C(=O)NCCCc2ccccc2)oc2c(F)cccc12 | 0.249 | –
22 | CCn1ccnc1CN1CCC(C2CCN(Cc3ccc(Cl)cc3)C2)CC1 (stereo unspecified) | – | 0.752
23 | O=C1N(Cc2cccnc2)C[C@@H]2C[C@@H](c3ccc(OCc4ccccc4)cc3)N3CCC[C@@]123 | – | 0.53
24 | O=C(NCCN1Cc2ccccc2OC(c2ccccc2F)C1)C(c1cccnc1)N1CCCC1 (stereo unspecified) | – | 0.601
25 | CCn1ccnc1CN1CCC(n2nccc2NC(=O)C2CC2)CC1 | 0.884 | –
26 | O=C(CN1CCCC1=O)NCc1cccnc1Oc1ccccc1 | 0.964 | –
27 | Cc1cccc(CCNC(=O)CC2C(=O)NCCN2Cc2cccs2)n1 (stereo unspecified) | 1.01 | –
28 | CCOC(=O)C1(Cc2cccc(OC)c2)CCN(Cc2c(C)nn(CC)c2C)CC1 | 0.856 | –
29 | Cc1cccc(CN2CCCC(C(=O)Nc3ccc(-c4cscn4)cc3)C2)c1 (stereo unspecified) | 0.887 | –
30 | O=C(CCn1cnnn1)N1CCCC(CCc2ccccc2)C1 (stereo unspecified) | – | 0.85
31 | Cc1csc(SCC(=O)N2CCc3c(cnc(C)c3CNC(=O)c3ccc4c(c3)OCO4)C2)n1 | – | 0.821
